Data: PubChem BioAssay AID493014 (National Center for Advancing Translational Sciences (NCATS), 2011)
This is one part of the list. Further columns of the screen follow, without active or inactive calls. The list favours compounds with an active or inconclusive main result. The note in brackets gives the kind of curve behind each potency; many fits are weak.

Experiment: qHTS Assay to Find Inhibitors of Chronic Active B-Cell Receptor Signaling
Conditions: ABC-DLBCL IkBa-CBG/CBR reporter, luminescence ratio (green luciferase fused to IkBa over red control in TMD8 lymphoma cells), 4 h
In short: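 TMD8 ABC-DLBCL cells carrying doxycycline-inducible green luciferase fused to IkappaBalpha plus unfused red luciferase were exposed to compounds (up to 46 uM) for 4 hrs at 37C. Activity came from the overlap-corrected green/red luminescence ratio.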

[1] = measured here: CBR red luminescence, cell number
[2] = measured here: IkBa-CBG green luminescence

COc1ccc2cc(/C=N/NC(=O)CN(c3ccccc3)S(=O)(=O)c3ccccc3)c(Cl)nc2c1
AC50 [1]: 25.9 µM [rising, partial curve, poor fit]

CCCNC(=O)Nc1nnc(C2CC2)s1
AC50 [1]: 6.31 µM [rising, partial curve, poor fit]

COc1ccc(/C(C#N)=C/c2ccccn2)cc1
AC50 [1]: 35.5 µM [falling, single point]

O=C(NC(NC(=S)Nc1cc(Cl)ccc1Cl)C(Cl)(Cl)Cl)c1ccco1 (stereo unspecified)
AC50 [1]: 17.8 µM [falling, partial curve, poor fit]

CNC(=O)c1ccc(NC(=O)c2ccc3c(=O)n4c(nc3c2)CCC4)cc1
AC50 [1]: 10.3 µM [falling, partial curve, poor fit]

CCOC(=O)c1ccc(N/C=C/C(=O)c2ccccc2)cc1
AC50 [1]: 25.1 µM [falling, single point]

NNc1nc(NCc2ccccc2)nc(N2CCOCC2)n1
AC50 [1]: 18.4 µM [falling, single point]

Cc1ccccc1Cn1c(=N)n(CC(=O)c2ccco2)c2ccccc21
AC50 [1]: 3.98 µM [falling, partial curve, poor fit]

COc1ccc(OC)c2sc(NC(=O)c3ccc(S(=O)(=O)N4CCOCC4)cc3)nc12
AC50 [1]: 9.2 µM [falling, partial curve, poor fit]

CCC(=O)N1CCC(c2ccc(OC)cc2)=N1
AC50 [1]: 2.31 µM [rising, full curve]

CCOC(=O)COc1ccc(S(=O)(=O)NCCC2=CCCCC2)cc1
AC50 [1]: 29.1 µM [falling, partial curve, poor fit]

O=C(CCn1c(=S)[nH]c2ccccc2c1=O)Nc1cccc(Cl)c1
AC50 [1]: 0.708 µM [rising, full curve, poor fit]

CCc1nc2ccc(C(=O)NCc3ccc(OC)c(OC)c3)cc2nc1CC
AC50 [1]: 12.6 µM [falling, partial curve, poor fit]

N#CCC(=O)Nc1ccc(C(=O)OCC(=O)NCc2ccc3c(c2)OCO3)cc1
AC50 [1]: 13 µM [falling, single point]

CC1(C)Cc2c(c(N3CCOCC3)nc3sc(C(=O)Nc4ccc(Cl)cc4)c(N)c23)CO1
AC50 [1]: 20 µM [falling, partial curve, poor fit]

CCN1CCN(c2ccc(S(=O)(=O)N3CCOCC3)cc2NC(=O)c2ccccc2SC)CC1
AC50 [1]: 1.64 µM [rising, partial curve]

CCCn1c(N)c(N(CCOC)C(=O)c2ccc(N(C)S(=O)(=O)c3ccc(C)cc3)cc2)c(=O)[nH]c1=O
AC50 [1]: 0.013 µM [falling, full curve, poor fit]

CCCCC(=O)N1CCCC(c2nc(-c3cccc(OC)c3)no2)C1 (stereo unspecified)
AC50 [1]: 1.41 µM [rising, partial curve, poor fit]

OCC1OC(n2cnc3c(NC4CCCCC4)ncnc32)C(O)C1O (stereo unspecified)
AC50 [2]: 2.51 µM [falling, partial curve]

CCN(CC(=O)Nc1ccc(NC(C)=O)cc1)CC(=O)Nc1cccc(Cl)c1
AC50 [1]: 22.4 µM [falling, single point]

CC(=O)OC1COC(N2CCc3cc(Br)c([N+](=O)[O-])cc32)C(OC(C)=O)C1OC(C)=O (stereo unspecified)
AC50 [1]: 6.51 µM [falling, single point]

COC(=O)CNC(=O)c1cccc(-c2ccc(OC)cc2)c1
AC50 [1]: 28.2 µM [falling, single point]

CCCC1=NN(c2ccc([N+](=O)[O-])cc2)C(=O)/C1=C/N(C)C
AC50 [1]: 29.1 µM [falling, single point]

CCCn1c(-c2ccc(OC)cc2)nc2c(=O)n(C)c(=O)[nH]c21
AC50 [1]: 23.1 µM [rising, single point]

CC1(O)CC(=O)N(c2ccccc2)O1 (stereo unspecified)
AC50 [1]: 35.5 µM [falling, single point]

COc1ccc(OCCCCN2CCC(C)CC2)cc1
AC50 [1]: 4.47 µM [rising, partial curve, poor fit]
AC50 [2]: 3.55 µM [falling, single point]

COc1ccccc1NC1=C(Cl)C(=O)N(c2ccccc2)C1=O
AC50 [1]: 11.6 µM [falling, partial curve]

Cc1ccccc1C(=O)NCC(=O)Nc1ccc(C)c(S(=O)(=O)N2CCCCCC2)c1
AC50 [1]: 22.4 µM [falling, single point]

Cc1ccc(C)c(NC(=O)c2ccc(OC(=O)c3ccco3)cc2)c1
AC50 [1]: 14.6 µM [falling, partial curve, poor fit]

Cc1[nH]c2ccccc2c1C(=O)COC(=O)c1c(-c2ccccc2)noc1C
AC50 [1]: 29.1 µM [falling, single point]
AC50 [2]: 29.1 µM [rising, partial curve, poor fit]

CC(=O)Nc1ccc(C(=O)N(C2=NC(C)CS2)c2ccc(Cl)cc2)cc1 (stereo unspecified)
AC50 [1]: 6.31 µM [rising, single point]

Cc1c(C)c(C)c(C(=O)c2ccc(NC(=O)c3ccccc3C(=O)O)cc2)c(C)c1C
AC50 [1]: 8.91 µM [rising, partial curve, poor fit]

O=C(CSc1n[nH]c(-c2cccs2)n1)N1CCCCC1
AC50 [1]: 8.2 µM [falling, partial curve, poor fit]

Cc1ccc(OCC(=O)Nc2cccc(O)c2)cc1C
AC50 [1]: 3.98 µM [falling, full curve, poor fit]

CCN(CC)S(=O)(=O)c1ccc(C(=O)NCc2ccc3c(c2)cc(C)n3C)cc1
AC50 [1]: 23.1 µM [rising, single point]

CCc1ccccc1NC(=O)C1=CC(c2cccs2)=NS(=O)(=O)N1C
AC50 [1]: 2.82 µM [rising, single point]

CCc1nc2oc3ccccc3c(=O)c2c(=O)n1-c1ccc(C)cc1
AC50 [1]: 2 µM [falling, full curve]

Oc1ccccc1/C=N/NC(=S)NC1CC2C=CC1C2 (stereo unspecified)
AC50 [1]: 0.794 µM [falling, full curve]

Cc1ccc(NC(=O)c2cc(-c3cccs3)nc3ccccc23)nc1
AC50 [1]: 11.2 µM [falling, single point]

CC(C)(C)C(=O)NNC(=O)c1cc2sccc2s1
AC50 [1]: 3.16 µM [rising, single point]

CCOC(=O)C1CCN(C(=O)c2cc(C(C)(C)C)nn2Cc2ccccc2)CC1
AC50 [1]: 3.16 µM [rising, full curve, poor fit]

COc1ccc(NC(=O)C2CCCN(S(=O)(=O)c3cccs3)C2)cc1OC (stereo unspecified)
AC50 [1]: 2.59 µM [rising, partial curve, poor fit]

C=CC[C@H](CC(=O)NCCO)C(=O)N[C@@H](C)COC(=O)[C@@H](CC=C)CC(=O)OC(C)(C)C
AC50 [1]: 0.259 µM [rising, full curve, poor fit]

O=C(COc1ccc(Cl)cc1)Nc1ccccc1CO
AC50 [1]: 7.94 µM [falling, partial curve]

Cc1cc(=O)oc2c(C)c(OCC(=O)N3CCC(C(=O)O)CC3)ccc12
AC50 [1]: 15.8 µM [falling, single point]

O=C(Nc1cccc2ccccc12)N1CCN(Cc2ccc3c(c2)OCO3)CC1
AC50 [1]: 0.731 µM [falling, full curve, poor fit]

O=[N+]([O-])c1cccc(/C=N/Nc2nccnc2Cl)c1
AC50 [1]: 12.6 µM [rising, partial curve, poor fit]

CNc1nnc(-c2ccco2)s1
AC50 [1]: 0.0891 µM [rising, full curve, poor fit]

O=C(NCC1CCCO1)C1CC(c2ccccc2Cl)=NO1 (stereo unspecified)
AC50 [1]: 13 µM [rising, partial curve, poor fit]

O=C(NCC(c1cccnc1)N1CCN(c2ccccc2F)CC1)OCc1ccccc1 (stereo unspecified)
AC50 [1]: 2.06 µM [rising, partial curve, poor fit]

CCc1nc(SCC(=O)N2CCCc3ccccc32)c2oc3ccccc3c2n1
AC50 [1]: 2.82 µM [falling, partial curve, poor fit]

CCCCc1cc(O)c(CCCC)c(O)c1
AC50 [2]: 11.2 µM [falling, partial curve]

O=C(Nc1ccccc1F)Nc1ccccc1F
AC50 [1]: 10 µM [falling, partial curve, poor fit]

CCOC(=O)C1=C(COC(=O)c2cc(S(=O)(=O)N(C)C)ccc2C)NC(=O)NC1C (stereo unspecified)
AC50 [1]: 7.31 µM [falling, partial curve, poor fit]

Cc1ccc(C(=O)c2nc3c(n2O)CCCC3)cc1
AC50 [1]: 9.2 µM [falling, partial curve, poor fit]

O=c1cc(N2CCc3ccccc32)[nH]c(=O)n1-c1ccc(Cl)cc1
AC50 [1]: 11.2 µM [falling, partial curve, poor fit]

COc1ccc2sc(NC(C)=O)nc2c1
AC50 [1]: 6.51 µM [rising, single point]

CC(C)(C)NS(=O)(=O)c1ccc(NS(C)(=O)=O)cc1
AC50 [1]: 0.103 µM [rising, full curve, poor fit]

O=C(COc1ccc(Cl)cc1)Nc1ccc(C(=O)O)cc1NC(=O)COc1ccc(Cl)cc1
AC50 [1]: 10 µM [falling, partial curve]

COc1ccccc1-c1ccc(Nc2cccc(C(C)=O)c2)nn1
AC50 [1]: 0.461 µM [falling, partial curve, poor fit]

COc1ccc(N2C(=O)CSC23CCCCC3)cc1
AC50 [1]: 29.1 µM [falling, single point]

CCOC(=O)c1c(C2CC2)csc1NC(=O)CSCc1c(C)noc1C
AC50 [1]: 7.94 µM [rising, partial curve, poor fit]

COc1ccc(OC)c(NC(=O)c2nc(S(=O)(=O)Cc3ccccc3)ncc2Cl)c1
AC50 [1]: 2.82 µM [falling, full curve]
AC50 [2]: 3.98 µM [rising, full curve]
